PubChem BioAssay AID1508587 – Peter MacCallum Cancer Centre | 2020
Screen: 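Retest of knockdowns boosting BRAF inhibitor action on lactate release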 (follow-up of hits). System: human WM266.4 melanoma cells with a BRAF V600 mutation. Knock-down reagent: single siRNA against human genes, 25 nM. Timing: 96 h. Treatment: vemurafenib 300 nM (about IC25), given 48 h after transfection for 48 h. Read-out: 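Medium lactate read by absorbance over DAPI-counted nuclei; ratio with versus without vemurafenib, set against non-targeting siRNA, averaged over 2 replicates; cell number also recorded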. Direction: lactate per cell, drug vs no drug: higher = less drug-induced drop in lactate per cell; lactate per cell with vemurafenib: higher = more lactate per cell under drug; lactate per cell without drug: higher = more lactate per cell without drug; cell growth with vemurafenib and cell growth without drug: higher = more cell growth over 48 h. Rule for the call: 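a duplex is active when its lactate-per-cell ratio with versus without drug falls under 0.55, i.e. 2 SD below non-targeting; a gene is confirmed if 2 or more of 4 duplexes pass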.
The deposit covers about 1,600 reagents; below is an unselected part. In the full data, 623 (39%) were called active. 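Calls are for each duplex; lactate ratios contain extreme outliers.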 Reagents against one gene are numbered here.

no.	gene knocked down	reagent no.	lactate per cell, drug vs no drug	lactate per cell with vemurafenib	lactate per cell without drug	cell growth with vemurafenib	cell growth without drug	outcome
1	ZCWPW1 (GeneID 55063)	1	0.44	1.08	1.75	0.34	0.28	active
2	ZCWPW1 (GeneID 55063)	2	0.61	2.5	3	0.31	0.18	inactive
3	ZCWPW1 (GeneID 55063)	3	0.72	1.06	1.07	1.03	0.81	inactive
4	ZCWPW1 (GeneID 55063)	4	0.55	0.78	1.02	1.03	0.95	inactive
5	USP2 (GeneID 9099)	1	0.14	0.16	0.7	0.16	0.3	active
6	USP2 (GeneID 9099)	2	0.63	3.31	3.1	0.16	0.11	inactive
7	USP2 (GeneID 9099)	3	0.77	1.87	1.44	-0.06	0.19	inactive
8	USP2 (GeneID 9099)	4	0.74	1.22	0.97	1.14	1.13	inactive
9	LGR4 (GeneID 55366)	1	0.58	1.77	1.92	0.64	0.37	inactive
10	LGR4 (GeneID 55366)	2	0.44	0.82	1.18	1.03	0.78	active
11	LGR4 (GeneID 55366)	3	0.54	1.08	1.28	0.21	0.52	active
12	LGR4 (GeneID 55366)	4	0.77	1.68	1.38	0.24	0.24	inactive
13	MSH3 (GeneID 4437)	1	0.81	2.67	2.21	0.02	0.12	inactive
14	MSH3 (GeneID 4437)	2	0.64	1.86	1.89	0.68	0.45	inactive
15	MSH3 (GeneID 4437)	3	1.23	1.84	0.98	0	0.25	inactive
16	MSH3 (GeneID 4437)	4	0.44	0.46	0.68	0.45	0.88	active
17	RAMP1 (GeneID 10267)	1	0.78	2.23	1.87	0.14	0.25	inactive
18	RAMP1 (GeneID 10267)	2	0.72	2.26	2.06	0.04	0.09	inactive
19	RAMP1 (GeneID 10267)	3	0.45	1	1.44	0.27	0.14	active
20	RAMP1 (GeneID 10267)	4	0.9	2.09	1.52	0.37	0.61	inactive
21	ZBTB9 (GeneID 221504)	1	0.5	1.4	1.71	0.23	0.38	active
22	ZBTB9 (GeneID 221504)	2	0.64	1.92	1.83	0.16	0.11	inactive
23	ZBTB9 (GeneID 221504)	3	0.66	1.27	1.21	0.95	0.77	inactive
24	ZBTB9 (GeneID 221504)	4	0.74	1.42	1.19	1.12	0.85	inactive

A portion taken from the entries so far, for reference:
no.	gene knocked down	reagent no.	lactate per cell, drug vs no drug	lactate per cell with vemurafenib	lactate per cell without drug	cell growth with vemurafenib	cell growth without drug	outcome
17	RAMP1 (GeneID 10267)	1	0.78	2.23	1.87	0.14	0.25	inactive
18	RAMP1 (GeneID 10267)	2	0.72	2.26	2.06	0.04	0.09	inactive
19	RAMP1 (GeneID 10267)	3	0.45	1	1.44	0.27	0.14	active
20	RAMP1 (GeneID 10267)	4	0.9	2.09	1.52	0.37	0.61	inactive
21	ZBTB9 (GeneID 221504)	1	0.5	1.4	1.71	0.23	0.38	active

The listing continues:
no.	gene knocked down	reagent no.	lactate per cell, drug vs no drug	lactate per cell with vemurafenib	lactate per cell without drug	cell growth with vemurafenib	cell growth without drug	outcome
25	MAGEA9B (GeneID 728269)	1	0.48	1.19	1.71	0.51	0.2	active
26	MAGEA9B (GeneID 728269)	2	0.77	0.9	0.78	0.72	0.68	inactive
27	MAGEA9B (GeneID 728269)	3	0.59	0.78	0.9	0.7	0.92	inactive
28	MAGEA9B (GeneID 728269)	4	0.68	1.61	1.59	0.22	0.18	inactive
29	KCTD8 (GeneID 386617)	1	0.48	1.19	1.82	0.13	0.14	active
30	KCTD8 (GeneID 386617)	2	0.55	1.19	1.46	0.41	0.21	inactive
31	KCTD8 (GeneID 386617)	3	0.78	0.52	0.46	-0.14	-0.06	inactive
32	KCTD8 (GeneID 386617)	4	0.55	1.56	1.98	0.4	0.27	inactive
33	LOC90462 (retired record) (GeneID 90462)	1	0.57	1.34	1.6	0.72	0.52	inactive
34	LOC90462 (retired record) (GeneID 90462)	2	0.6	1.44	1.6	0.01	0.11	inactive
35	LOC90462 (retired record) (GeneID 90462)	3	0.29	0.3	0.7	0.17	0.36	active
36	LOC90462 (retired record) (GeneID 90462)	4	0.52	0.74	0.98	0.78	0.51	active
37	IL1RAPL1 (GeneID 11141)	1	0.7	1.5	1.42	0.3	0.34	inactive
38	IL1RAPL1 (GeneID 11141)	2	0.52	0.64	0.82	0.7	1.17	active
39	IL1RAPL1 (GeneID 11141)	3	0.64	2.1	2.15	0.46	0.36	inactive
40	IL1RAPL1 (GeneID 11141)	4	0.6	0.66	0.73	0.15	0.36	inactive
41	ALK (GeneID 238)	1	0.69	1.23	1.13	0.56	0.54	inactive
42	ALK (GeneID 238)	2	0.7	1.36	1.23	0.73	0.68	inactive
43	ALK (GeneID 238)	3	0.7	1.44	1.29	0.02	0.26	inactive
44	ALK (GeneID 238)	4	0.54	0.86	1	0.2	0.5	active
45	PRY2 (GeneID 442862)	1	0.84	1.74	1.38	-0.04	0.19	inactive
46	PRY2 (GeneID 442862)	2	0.52	1.3	1.64	-0.04	0.07	active
47	PRY2 (GeneID 442862)	3	0.64	0.59	0.62	1	1.09	inactive
48	PRY2 (GeneID 442862)	4	0.63	4.89	5.14	-0.14	-0.09	inactive
49	SLC39A8 (GeneID 64116)	1	0.44	1.14	1.86	0.1	0.11	active
50	SLC39A8 (GeneID 64116)	2	0.66	1.08	1.19	0.86	1	inactive
51	SLC39A8 (GeneID 64116)	3	0.56	0.66	0.84	0.89	1.14	inactive
52	SLC39A8 (GeneID 64116)	4	0.76	2.25	2.16	0.14	0.16	inactive
